Experimental data published in patent US7528205B2, “Photo radical generator, photo sensitive resin composition and article” (Dai Nippon Printing Co., Ltd., priority 2003, dated 2009).
Some of these results come from one statement about several compounds together.

Experiment: Evaluation of heat resistance (thermogravimetry, 5% reduction in weight temperature)
Format: physicochemical
Settings: 10° C./min, nitrogen atmosphere
Experimental: Herein, the 5% reduction in weight temperature means a temperature at which the weight of a sample is reduced […] when a decrement of weight is measured using a thermogravimetric analyzer according to the same method as in the examples of the present invention as will be explained later. Similarly, the 10% reduction in weight temperature means a temperature at which the weight of a sample is reduced […].
Using a differential type differential thermal balance (product name: TG8120; manufactured by Rigaku Corporation), the 5% reduction in weight temperature of each of the compounds 1 to 15 was measured at a temperature rise rate of 10° C./min in a nitrogen atmosphere. As comparative examples, the comparative compounds 2 and 3 and a self-cleavage type photoradical generator Irgacure 907 (trademark; manufactured by Ciba Specialty Chemicals) were similarly measured.

SMILES	heat resistance / 5% reduction in weight temperature, comparison in words	heat resistance / 5% reduction in weight temperature, comparison in words (listed as compound 13)
COCCn1c(=O)c2ccccc2c2ccccc2c1=O [Compound 1]	almost equal heat resistance to the comparative compound 3	–
CC(=O)OCC(C(C)C)n1c(=O)c2ccccc2c2ccccc2c1=O (stereo not shown) [Compound 4]	almost equal heat resistance to the comparative compound 3	–
C=COCCCn1c(=O)c2ccccc2c2ccccc2c1=O [Compound 5]	almost equal heat resistance to the comparative compound 3	–
CC(=O)OCCOCCOCCn1c(=O)c2ccccc2c2ccccc2c1=O [Compound 6]	almost equal heat resistance to the comparative compound 3	–
C=CC(=O)OCCn1c(=O)c2ccccc2c2ccccc2c1=O [Compound 7]	almost equal heat resistance to the comparative compound 3	–
C=CC(=O)OCCOCCn1c(=O)c2ccccc2c2ccccc2c1=O [Compound 8]	almost equal heat resistance to the comparative compound 3	–
C=CC(=O)OCCOCCOCCn1c(=O)c2ccccc2c2ccccc2c1=O [Compound 9]	almost equal heat resistance to the comparative compound 3	–
O=c1c2ccccc2c2ccccc2c(=O)n1CCOCCn1c(=O)c2ccccc2c2ccccc2c1=O [Compound 10]	almost equal heat resistance to the comparative compound 3	–
O=c1c2ccccc2c2ccccc2c(=O)n1CCOCCOCCOCCn1c(=O)c2ccccc2c2ccccc2c1=O [Compound 11]	almost equal heat resistance to the comparative compound 3	–
O=c1c2ccccc2c2ccccc2c(=O)n1CCOCCOCCOCCOCCOCCn1c(=O)c2ccccc2c2ccccc2c1=O [Compound 12]	almost equal heat resistance to the comparative compound 3	–
CN(C)CCn1c(=O)c2ccccc2c2ccccc2c1=O [Compound 13]	–	almost equal heat resistance to the comparative compound 3
CC(=O)OCCN(CCn1c(=O)c2ccccc2c2ccccc2c1=O)C(C)=O [Compound 14]	almost equal heat resistance to the comparative compound 3	–
COCCn1c(=O)c2cc([N+](=O)[O-])ccc2c2ccc([N+](=O)[O-])cc2c1=O [Compound 15]	almost equal heat resistance to the comparative compound 3	–
